From PMC10990277
Results are given in words; binding and its absence hold for the method and conditions named. In cells and extracts the contact can be indirect. Here binding means that the protein was enriched with, or labelled near, the bait; the list need not be complete. For some assays here: A no says only that the protein was not detected with the bait.

Assays:
Experiment in all cases: proximity labelling
[1] = molecular target: E-HA/TurboID^Site3ΔDLLV (SARS-CoV-2) (UniProt P0DTC4)
[2] = molecular target: E-HA/TurboID^Site4ΔDLLV (SARS-CoV-2) (UniProt P0DTC4)
[3] = molecular target: E-HA/TurboID^Site3 (SARS-CoV-2) (UniProt P0DTC4)
[4] = molecular target: E-HA/TurboID^Site4 (SARS-CoV-2) (UniProt P0DTC4)

Substance	binding [1]	binding [2]	binding [3]	binding [4]
tight junction protein–1 (TJP1) (from UniProt Q07157 1-1748)	no binding	no binding		
PALS-1 (from UniProt Q8N3R9 1-675)	no binding	no binding		
AP1AR/Gadkin (from UniProt Q63HQ0 1-302)			binds	
SEC24B (from UniProt O95487 1-1268)			binds	binds
SEC31A (from UniProt O94979 1-1220)			binds	binds
SEC24A (from UniProt O95486 1-1093)			binds	binds
